# Laboratory results as given in PubChem BioAssay AID504834 (National Center for Advancing Translational Sciences (NCATS), 2011).
# Among all 320,000 compounds or so, about 22,000 (6.9%) were called active. The shares of active, inactive and inconclusive entries below differ from those in the screen. The call rests on the fitted dose curve; in most records, active means well fitted inhibition curve with a large enough effect; inconclusive means small, poorly fitted or top-dose-only effect, or another doubt; inactive means no such curve, though single readings can be large or run the other way. A potency beside an inconclusive call is a rough fit, not a confirmed value.
# Assay: Primary qHTS for delayed death inhibitors of the malarial parasite plastid, 96 hour incubation
# Details: P. falciparum luciferase reporter growth; series mostly up to 28.7 µM
# In short: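 Plates of compound plus infected erythrocytes (2% hematocrit, 0.05% parasitemia final) incubate 96 hours, 37 C, 5% CO2. Detection reagent added; reduced luminescence from the parasites' luciferase reporter flags inhibition.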
# Potency means the concentration at half of the fitted maximal effect.
row,SMILES,Potency
1,O=C1Nc2ccccc2S/C1=C\C(=O)N1CCCC1,inactive
2,CCOc1ccc(NC(=O)CSc2nnnn2CC(=O)O)cc1,"inconclusive: 13.1 µM [inhibitor, single point]"
3,O=C(C[C@@H]1NS(=O)(=O)OC2CCCCC21)c1ccccc1 (stereo partly drawn),inactive
4,COc1ccc(NC(=O)CN2CCC(Cc3ccccc3)CC2)cc1S(=O)(=O)N1CCOCC1,"inconclusive: 18.5 µM [inhibitor, single point]"
5,CCOC(=O)c1c(NC(=O)CSc2nnc(Cc3ccccc3)o2)sc(C)c1C,"inconclusive: 3.29 µM [inhibitor, single point]"
6,COc1ccc(NC(=O)[C@H](NC(=O)[C@@H]2Cc3ccccc3CN2)c2ccccc2)cc1,"inconclusive: 16.5 µM [inhibitor, single point]"
7,COCCN(C(=O)C(C)C)c1nnc(-c2ccc(C)cc2)s1,inactive
8,Cc1cc(C)c(O)c(-c2cc(C(=O)Nc3cccnc3)[nH]n2)c1,active: 2.94 µM
9,Brc1ccc(CN2CC[C@H]3C=CCc4cccc(c43)C2)cc1,"inconclusive: 4.15 µM [inhibitor, full curve]"
10,CSc1nnc(N2C(=O)C(O)=C(C(=O)c3ccco3)C2c2ccccc2)s1 (stereo not drawn),inactive
11,Cc1nc2scc(C)n2c(=O)c1S(=O)(=O)N1CCN(c2cccc(C(F)(F)F)c2)CC1,"inconclusive: 11.7 µM [inhibitor, partial curve]"
12,CCN(CC)c1ccc(S(=O)(=O)N2CCOCC2)cc1NC(=O)CSc1nncs1,"inconclusive: 2.62 µM [inhibitor, partial curve]"
13,Cc1ccc2c(c1)N(CC(=O)NCC(C)c1ccccc1)C(=O)c1cccnc1O2 (stereo not drawn),"inconclusive: 11.7 µM [inhibitor, partial curve, poor fit]"
14,COc1ccc2[nH]c(=O)c(-c3nnn(-c4ccccc4)n3)cc2c1,"inconclusive: 1.65 µM [inhibitor, full curve]"
15,O=C(COC(=O)c1cccc(Cl)c1)Nc1cc(Cl)ccc1Oc1ccccc1,inactive
16,CCCCSc1oc(-c2ccco2)nc1S(=O)(=O)c1ccccc1,"inconclusive: 8.28 µM [inhibitor, partial curve]"
17,Cc1ccccc1NS(=O)(=O)c1cc2c3c(c1)CC(=O)N3CCC2,inactive
18,O=C1c2ccccc2NC(c2cccc([N+](=O)[O-])c2)N1O (stereo not drawn),active: 8.28 µM
19,COc1cc(C2SCC(=O)N2CCN2CCCCC2)ccc1O (stereo not drawn),inactive
20,CCCn1c(N)c(C(=O)CSc2nnc(C3CC3)n2Cc2ccccc2)c(=O)n(C)c1=O,"inconclusive: 9.28 µM [inhibitor, single point]"
21,O=C(CN1CCN(c2ccc(F)cc2)CC1)Nc1nnc(-c2ccccc2)s1,"inconclusive: 11.7 µM [inhibitor, partial curve, poor fit]"
22,O=C1OC2(CCCCC2)CC2=C1C1O[C@](c3ccsc3)(Cc3ccccc31)O2,"inconclusive: 0.478 µM [inhibitor, full curve, poor fit]"

# Rewritten as tab-separated lines: four of the compounds above.
row	SMILES	Potency
18	O=C1c2ccccc2NC(c2cccc([N+](=O)[O-])c2)N1O (stereo not drawn)	active: 8.28 µM
19	COc1cc(C2SCC(=O)N2CCN2CCCCC2)ccc1O (stereo not drawn)	inactive
20	CCCn1c(N)c(C(=O)CSc2nnc(C3CC3)n2Cc2ccccc2)c(=O)n(C)c1=O	inconclusive: 9.28 µM [inhibitor, single point]
21	O=C(CN1CCN(c2ccc(F)cc2)CC1)Nc1nnc(-c2ccccc2)s1	inconclusive: 11.7 µM [inhibitor, partial curve, poor fit]

# The listing continues:

row,SMILES,Potency
1,COc1ccccc1NS(=O)(=O)c1cc(C(=O)NCc2cccnc2)ccc1C,"inconclusive: 10.4 µM [inhibitor, single point]"
2,CCc1ccc(C(=O)Nc2ccc(OC)c(S(=O)(=O)N3CCOCC3)c2)cc1,"inconclusive: 11.7 µM [inhibitor, single point]"
3,COCCCn1c(-c2ccsc2)nc2c1c(=O)[nH]c(=O)n2Cc1ccccc1,"inconclusive: 18.5 µM [inhibitor, single point]"
4,CCOC(=O)N1CCN(C(=O)CN(C)S(=O)(=O)c2ccc3c(c2)c(=O)n(C)c(=O)n3C)CC1,"inconclusive: 5.22 µM [inhibitor, partial curve]"
5,CCC(=O)NC(c1ccc(C)cc1)c1cc([N+](=O)[O-])c2cccnc2c1O (stereo not drawn),inactive
6,CC(C)c1ccc(/C=N/NC(=O)c2cc(-c3cccc([N+](=O)[O-])c3)n[nH]2)cc1,"inconclusive: 2.62 µM [inhibitor, partial curve, poor fit]"
7,O=S(=O)(c1cccc(C(F)(F)F)c1)N1CCN(c2nnnn2-c2ccccc2)CC1,active: 8.28 µM
8,O=C(C1=NN[C@@H]2C(=O)N(c3cccc(C(F)(F)F)c3)C(=O)[C@H]12)C(c1ccccc1)c1ccccc1,"inconclusive: 13.1 µM [inhibitor, single point]"
9,Cc1ccc(C=C2C(Cl)=C(Cl)C(Cl)=C2Cl)cc1,inactive
10,CC1CC(C)CN(S(=O)(=O)c2ccc3c(c2)oc(=O)n3CC(=O)N(C)Cc2ccccc2)C1 (stereo not drawn),"inconclusive: 3.7 µM [inhibitor, partial curve, poor fit]"
11,COCCn1c(SCC(=O)Nc2ccc(C(N)=O)cc2)nc2c([nH]c3ccccc32)c1=O,inactive
12,CCCS(=O)(=O)c1c(S(=O)(=O)CCC)c2c3ccccc3ccn2c1C(=O)OC,inactive
13,CC(NC(=O)Nc1ccc(F)cc1)c1ccc2c(c1)OCO2 (stereo not drawn),inactive
14,CCOC(=O)C1=C(CS(=O)(=O)c2ccccc2)NC(=O)NC1c1ccccc1OC (stereo not drawn),"inconclusive: 2.08 µM [inhibitor, single point]"
15,NC(=O)c1cccn1Cc1cccc(Cl)c1,"inconclusive: 3.7 µM [inhibitor, full curve, poor fit]"
16,Cc1ccc(C2OC3=C(C(=O)CC(C)(C)C3)C(N)=C2C#N)o1 (stereo not drawn),"inconclusive: 0.522 µM [inhibitor, full curve, poor fit]"
17,CCOc1cc(N2CCOCC2)c(OCC)cc1NC(=O)c1ccc(OCc2c(C)noc2C)c(OC)c1,"inconclusive: 2.33 µM [inhibitor, full curve]"
18,CCOC(=O)c1c(NC(=O)c2cccs2)sc(C)c1CC,"inconclusive: 14.7 µM [inhibitor, partial curve, poor fit]"
19,CCCOc1ccc(N2C(=O)CC(N(O)c3ccccc3)C2=O)cc1 (stereo not drawn),inactive
20,Cc1ccc(C)c(NC(=O)C(c2ccccc2)N2CCOCC2)c1 (stereo not drawn),inactive
21,COc1ccc(-n2c(SCC(=O)c3c(N)n(C)c(=O)n(C)c3=O)nc3ccccc32)cc1,"inconclusive: 4.15 µM [inhibitor, single point]"
